Assay results taken from paper PMC545799.
These are yes or no findings as the source states them, for the method shown. Some binding calls cover weakened binding; strength is not graded here.

Sequences of proteins named here, by UniProt entry; tags and fusion partners are left off.
UniProt P23572: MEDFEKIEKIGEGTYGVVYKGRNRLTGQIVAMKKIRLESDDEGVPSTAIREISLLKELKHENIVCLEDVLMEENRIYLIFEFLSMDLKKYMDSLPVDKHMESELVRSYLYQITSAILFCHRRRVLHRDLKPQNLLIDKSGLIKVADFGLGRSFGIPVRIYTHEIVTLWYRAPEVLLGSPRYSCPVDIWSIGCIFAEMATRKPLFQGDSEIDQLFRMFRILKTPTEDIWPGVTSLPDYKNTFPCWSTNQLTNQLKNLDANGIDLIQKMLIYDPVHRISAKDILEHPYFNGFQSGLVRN

Molecular target: Cdc2 (Drosophila melanogaster) (UniProt P23572)
Assay: two-hybrid; LexA-based yeast two-hybrid: LexA BD fusions (pHZ5-NRT, strain Y309) mated with B42 AD fusions (pJZ4-NRT, strain RFY231); pooled mating in two phases and library screening; LEU2 (growth without leucine, 0-3) and lacZ (X-Gal, 0-5) reporters on galactose and maltose medium, 30°C; interactions re-tested one-on-one

binding	Binder
binds	CycE (protein, UniProt P54733 1-709) MGLNAKSVCSTSSTEPNGSIVTTAPSNGEVSSSIVVVVSSSSISSSSDSPIAILPHPDPIPSTSFSSASQRSEEELPGTSAASRTDEMCSCDSQNLAASTAATSNGNKRKRRLSSDSNEDPELGFEPPSAKRQQRLPALYGSEQGNLSSVASSVYTSPVVSVDGQSTQELLSIRSSPAEDLSEAPHSPLPDSPDSPPSPDRGSKQTPVVVRYAAEQVVTSTVVTQKTEDDDLLDDSCEDYSYDEDDEDDVEEEDDDVEIYSSTISPASSGCSQQQAVNGERTPGLPKHQEQIHHPVSDLMINMRTPMSPAVENGLRQCPLPALAWANAADVWRLMCHRDEQDSRLRSISMLEQHPGLQPRMRAILLDWLIEVCEVYKLHRETFYLAVDYLDRYLHVAHKVQKTHLQLIGITCLFVAAKVEEIYPPKIGEFAYVTDGACTERDILNHEKILLQALDWDISPITITGWLGVYMQLNVNNRTPASFSQIGRQKSAEADDAFIYPQFSGFEFVQTSQLLDLCTLDVGMANYSYSVLAAAAISHTFSREMALRCSGLDWQVIQPCARWMEPFFRVISQKAPYLQLNEQNEQVSNKFGLGLICPNIVTDDSHIIQTHTTTMDMYDEVLMAQDAAHAMRARIQASPATALRAPESLLTPPASSHKPDEYLGDEGDETGARSGISSTTTCCNTAASNKGGKSSSNNSVTSCSSRSNP
binds	twe (protein, UniProt Q03019 1-426) MASKRLMLDVEEEDDESGACGQENFDPHDADMEYQAKRRKSAVQETPLQWMLKRHIPASTTVLSPITELSQNMNGARLDGTPKSTQRIPANRTLNNFNSLSSRTLGSFSSSCSSYESGNSLDDEYMDMFEMESAENHNLELPDDLEVLLSGQLKSESNLEEMSNKKGSLRRCLSMYPSEQPEEAVQEPDQETNMPMKKMQRKTLSMNDAEIMRALGDEPELIGDLSKPCTLPCLATGIRHRDLKTISSDTLARLIQGEFDEQLGSQGGYEIIDCRYPYEFLGGHIRGAKNLYTRGQIQEAFPTLTSNQENRRIYVFHCEFSSERGPKLLRYLRSNDRSQHTHNYPALDYPELYILHNGYKEFFGLYSQLCQPSQYVPMLAPAHNDEFRYFRAKTKSWQCGEGGDSGIGGGGSRGLRKSRSRLLYAE
